Our source for the binding values is PMC6711745.

These are yes or no findings as the source states them, for the method shown. Binding seen in cells or lysates may run through a third protein. Some entries that bind do so weakly or less than the wild type.

In this experiment the target is T1, NKX2-1 (mouse (endogenous in MLE-12)) (UniProt P50220).
T1 sequence: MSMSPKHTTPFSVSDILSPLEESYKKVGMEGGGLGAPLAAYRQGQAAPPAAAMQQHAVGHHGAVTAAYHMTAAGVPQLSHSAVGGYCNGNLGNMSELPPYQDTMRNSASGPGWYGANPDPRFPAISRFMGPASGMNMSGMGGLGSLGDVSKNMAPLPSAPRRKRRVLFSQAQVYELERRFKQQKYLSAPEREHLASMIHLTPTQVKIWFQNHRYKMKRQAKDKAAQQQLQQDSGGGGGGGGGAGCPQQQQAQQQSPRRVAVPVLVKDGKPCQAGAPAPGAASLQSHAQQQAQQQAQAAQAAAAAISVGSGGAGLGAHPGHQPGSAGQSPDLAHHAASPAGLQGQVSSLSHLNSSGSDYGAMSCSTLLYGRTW
The experiment in a line: co-IP; endogenous proteins in cleared MLE-12 lysate (20 mM Tris HCl pH 8, 137 mM NaCl, 0.1% Nonidet-P40); 10 ug antibody (anti-PGC1α 1F3.9 or anti-NKX2-1 AB76013) or control IgG on Protein G Dynabeads, 30 min at four degrees; eluates immunoblotted; n = 3.

B1: PGC1α (protein, UniProt O70343 1-797)
chain: MAWDMCSQDSVWSDIECAALVGEDQPLCPDLPELDLSELDVNDLDTDSFLGGLKWCSDQSEIISNQYNNEPANIFEKIDEENEANLLAVLTETLDSLPVDEDGLPSFDALTDGAVTTDNEASPSSMPDGTPPPQEAEEPSLLKKLLLAPANTQLSYNECSGLSTQNHAANHTHRIRTNPAIVKTENSWSNKAKSICQQQKPQRRPCSELLKYLTTNDDPPHTKPTENRNSSRDKCASKKKSHTQPQSQHAQAKPTTLSLPLTPESPNDPKGSPFENKTIERTLSVELSGTAGLTPPTTPPHKANQDNPFKASPKLKPSCKTVVPPPTKRARYSECSGTQGSHSTKKGPEQSELYAQLSKSSGLSRGHEERKTKRPSLRLFGDHDYCQSLNSKTDILINISQELQDSRQLDFKDASCDWQGHICSSTDSGQCYLRETLEASKQVSPCSTRKQLQDQEIRAELNKHFGHPCQAVFDDKSDKTSELRDGDFSNEQFSKLPVFINSGLAMDGLFDDSEDESDKLSYPWDGTQPYSLFDVSPSCSSFNSPCRDSVSPPKSLFSQRPQRMRSRSRSFSRHRSCSRSPYSRSRSRSPGSRSSSRSCYYYESSHYRHRTHRNSPLYVRSRSRSPYSRRPRYDSYEAYEHERLKRDEYRKEHEKRESERAKQRERQKQKAIEERRVIYVGKIRPDTTRTELRDRFEVFGEIEECTVNLRDDGDSYGFITYRYTCDAFAALENGYTLRRSNETDFELYFCGRKQFFKSNYADLDTNSDDFDPASTKSKYDSLDFDSLLKEAQRSLRR
On to B1, for which the binding entry was “binds”.
